Measured values taken from the supplement of paper PMC10849652.
The list shows a part of the results.

By UniProt entry, the sequences of proteins in these tests, tags left out. Where a name states a change or a piece, a line headed by the entry shows the natural chain unless it says otherwise.
UniProt P56945: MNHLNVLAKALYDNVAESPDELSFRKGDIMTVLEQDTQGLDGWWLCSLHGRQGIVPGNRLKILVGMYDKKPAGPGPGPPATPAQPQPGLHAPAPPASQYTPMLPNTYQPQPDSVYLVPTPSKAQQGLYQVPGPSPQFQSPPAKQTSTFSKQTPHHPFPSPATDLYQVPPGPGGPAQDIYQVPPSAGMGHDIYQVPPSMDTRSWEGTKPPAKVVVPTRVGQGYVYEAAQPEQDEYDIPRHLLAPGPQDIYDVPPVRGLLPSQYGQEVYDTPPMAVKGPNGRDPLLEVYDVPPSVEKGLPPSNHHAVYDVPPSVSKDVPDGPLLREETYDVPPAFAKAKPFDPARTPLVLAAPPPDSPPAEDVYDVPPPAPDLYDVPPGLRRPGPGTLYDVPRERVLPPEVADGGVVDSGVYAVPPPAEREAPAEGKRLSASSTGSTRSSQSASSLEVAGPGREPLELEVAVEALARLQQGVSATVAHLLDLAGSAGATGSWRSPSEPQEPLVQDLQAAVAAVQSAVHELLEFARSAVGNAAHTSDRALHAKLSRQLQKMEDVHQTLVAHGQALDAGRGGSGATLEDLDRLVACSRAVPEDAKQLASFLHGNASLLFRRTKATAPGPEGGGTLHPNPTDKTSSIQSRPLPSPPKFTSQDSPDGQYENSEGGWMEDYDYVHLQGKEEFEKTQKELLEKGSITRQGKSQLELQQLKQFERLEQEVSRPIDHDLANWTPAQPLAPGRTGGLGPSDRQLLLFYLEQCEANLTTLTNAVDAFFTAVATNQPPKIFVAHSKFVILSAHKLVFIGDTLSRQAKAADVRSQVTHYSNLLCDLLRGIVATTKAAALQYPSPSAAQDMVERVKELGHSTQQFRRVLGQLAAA
UniProt Q67FW5: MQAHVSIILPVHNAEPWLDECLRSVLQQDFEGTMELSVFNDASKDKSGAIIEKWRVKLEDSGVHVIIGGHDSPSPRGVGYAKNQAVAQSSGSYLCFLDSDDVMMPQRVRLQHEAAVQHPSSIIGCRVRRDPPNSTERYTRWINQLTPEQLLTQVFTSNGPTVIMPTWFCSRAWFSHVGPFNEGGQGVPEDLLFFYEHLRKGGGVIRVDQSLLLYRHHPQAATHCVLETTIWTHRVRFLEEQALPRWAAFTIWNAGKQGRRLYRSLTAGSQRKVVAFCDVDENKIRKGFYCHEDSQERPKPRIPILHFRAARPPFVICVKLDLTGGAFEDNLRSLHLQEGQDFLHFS
UniProt Q8NCR0: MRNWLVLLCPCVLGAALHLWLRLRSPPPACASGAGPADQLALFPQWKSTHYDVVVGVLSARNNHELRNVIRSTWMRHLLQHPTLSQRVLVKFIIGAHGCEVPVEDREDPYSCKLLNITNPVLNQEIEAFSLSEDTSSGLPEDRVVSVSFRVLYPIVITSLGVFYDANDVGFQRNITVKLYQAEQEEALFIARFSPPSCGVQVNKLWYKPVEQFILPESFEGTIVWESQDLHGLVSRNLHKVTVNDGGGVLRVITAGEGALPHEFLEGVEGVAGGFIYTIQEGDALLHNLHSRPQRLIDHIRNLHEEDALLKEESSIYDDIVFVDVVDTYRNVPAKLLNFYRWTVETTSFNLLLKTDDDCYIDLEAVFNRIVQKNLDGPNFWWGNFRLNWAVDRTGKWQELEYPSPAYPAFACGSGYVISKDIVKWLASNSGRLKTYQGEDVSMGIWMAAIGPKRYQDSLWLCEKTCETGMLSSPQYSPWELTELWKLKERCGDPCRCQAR
UniProt Q9NSY1, whole entry, looked up: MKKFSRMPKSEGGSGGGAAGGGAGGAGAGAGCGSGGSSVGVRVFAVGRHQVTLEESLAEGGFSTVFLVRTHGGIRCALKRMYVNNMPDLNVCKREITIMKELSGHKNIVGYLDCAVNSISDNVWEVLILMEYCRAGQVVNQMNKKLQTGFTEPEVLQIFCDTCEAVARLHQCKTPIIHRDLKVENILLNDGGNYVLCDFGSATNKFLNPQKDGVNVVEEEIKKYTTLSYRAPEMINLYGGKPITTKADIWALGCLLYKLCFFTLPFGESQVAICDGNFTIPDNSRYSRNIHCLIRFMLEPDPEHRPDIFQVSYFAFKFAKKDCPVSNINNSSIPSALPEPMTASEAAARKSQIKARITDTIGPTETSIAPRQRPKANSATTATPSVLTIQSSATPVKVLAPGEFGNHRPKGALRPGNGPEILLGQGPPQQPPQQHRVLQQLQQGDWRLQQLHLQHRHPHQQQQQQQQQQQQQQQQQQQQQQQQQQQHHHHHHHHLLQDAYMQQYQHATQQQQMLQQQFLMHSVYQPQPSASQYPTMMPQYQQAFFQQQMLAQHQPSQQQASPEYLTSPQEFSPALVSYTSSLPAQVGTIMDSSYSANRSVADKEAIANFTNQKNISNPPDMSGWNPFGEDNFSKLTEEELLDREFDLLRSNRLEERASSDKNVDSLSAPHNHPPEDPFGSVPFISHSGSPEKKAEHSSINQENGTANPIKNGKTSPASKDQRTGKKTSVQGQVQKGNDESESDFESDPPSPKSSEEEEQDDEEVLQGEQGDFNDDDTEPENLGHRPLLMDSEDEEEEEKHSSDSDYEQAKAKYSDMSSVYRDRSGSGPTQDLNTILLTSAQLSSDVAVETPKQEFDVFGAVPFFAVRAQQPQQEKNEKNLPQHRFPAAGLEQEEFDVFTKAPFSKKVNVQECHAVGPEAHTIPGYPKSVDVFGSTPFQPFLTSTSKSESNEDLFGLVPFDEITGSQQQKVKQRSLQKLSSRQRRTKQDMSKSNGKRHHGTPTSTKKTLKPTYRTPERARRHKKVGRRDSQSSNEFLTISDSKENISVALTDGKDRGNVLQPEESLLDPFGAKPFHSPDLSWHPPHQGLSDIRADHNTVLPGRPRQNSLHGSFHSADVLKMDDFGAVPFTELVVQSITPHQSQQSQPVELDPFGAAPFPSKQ
UniProt Q92560: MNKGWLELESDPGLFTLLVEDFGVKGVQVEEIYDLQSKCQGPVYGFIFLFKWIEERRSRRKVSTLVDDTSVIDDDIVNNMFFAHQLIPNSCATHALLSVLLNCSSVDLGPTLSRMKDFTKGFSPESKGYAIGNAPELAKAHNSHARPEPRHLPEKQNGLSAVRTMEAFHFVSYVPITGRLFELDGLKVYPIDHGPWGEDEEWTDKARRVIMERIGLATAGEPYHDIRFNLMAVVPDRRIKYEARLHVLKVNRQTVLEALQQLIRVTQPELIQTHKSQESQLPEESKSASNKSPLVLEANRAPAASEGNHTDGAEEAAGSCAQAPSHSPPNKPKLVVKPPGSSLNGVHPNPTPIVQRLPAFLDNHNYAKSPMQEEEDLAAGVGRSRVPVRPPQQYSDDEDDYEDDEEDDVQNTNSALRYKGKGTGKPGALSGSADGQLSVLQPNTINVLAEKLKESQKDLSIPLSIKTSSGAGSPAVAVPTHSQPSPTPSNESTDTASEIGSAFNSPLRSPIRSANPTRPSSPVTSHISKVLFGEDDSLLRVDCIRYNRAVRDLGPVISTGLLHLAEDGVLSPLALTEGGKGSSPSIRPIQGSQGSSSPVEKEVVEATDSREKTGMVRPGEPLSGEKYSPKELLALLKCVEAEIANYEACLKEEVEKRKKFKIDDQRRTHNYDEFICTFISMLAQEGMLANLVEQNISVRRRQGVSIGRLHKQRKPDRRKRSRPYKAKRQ
UniProt Q9UL45: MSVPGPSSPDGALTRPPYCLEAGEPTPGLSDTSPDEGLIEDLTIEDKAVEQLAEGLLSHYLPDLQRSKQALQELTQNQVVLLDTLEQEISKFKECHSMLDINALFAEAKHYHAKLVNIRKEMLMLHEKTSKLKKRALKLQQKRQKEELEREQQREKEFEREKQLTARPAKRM
UniProt Q9BX63: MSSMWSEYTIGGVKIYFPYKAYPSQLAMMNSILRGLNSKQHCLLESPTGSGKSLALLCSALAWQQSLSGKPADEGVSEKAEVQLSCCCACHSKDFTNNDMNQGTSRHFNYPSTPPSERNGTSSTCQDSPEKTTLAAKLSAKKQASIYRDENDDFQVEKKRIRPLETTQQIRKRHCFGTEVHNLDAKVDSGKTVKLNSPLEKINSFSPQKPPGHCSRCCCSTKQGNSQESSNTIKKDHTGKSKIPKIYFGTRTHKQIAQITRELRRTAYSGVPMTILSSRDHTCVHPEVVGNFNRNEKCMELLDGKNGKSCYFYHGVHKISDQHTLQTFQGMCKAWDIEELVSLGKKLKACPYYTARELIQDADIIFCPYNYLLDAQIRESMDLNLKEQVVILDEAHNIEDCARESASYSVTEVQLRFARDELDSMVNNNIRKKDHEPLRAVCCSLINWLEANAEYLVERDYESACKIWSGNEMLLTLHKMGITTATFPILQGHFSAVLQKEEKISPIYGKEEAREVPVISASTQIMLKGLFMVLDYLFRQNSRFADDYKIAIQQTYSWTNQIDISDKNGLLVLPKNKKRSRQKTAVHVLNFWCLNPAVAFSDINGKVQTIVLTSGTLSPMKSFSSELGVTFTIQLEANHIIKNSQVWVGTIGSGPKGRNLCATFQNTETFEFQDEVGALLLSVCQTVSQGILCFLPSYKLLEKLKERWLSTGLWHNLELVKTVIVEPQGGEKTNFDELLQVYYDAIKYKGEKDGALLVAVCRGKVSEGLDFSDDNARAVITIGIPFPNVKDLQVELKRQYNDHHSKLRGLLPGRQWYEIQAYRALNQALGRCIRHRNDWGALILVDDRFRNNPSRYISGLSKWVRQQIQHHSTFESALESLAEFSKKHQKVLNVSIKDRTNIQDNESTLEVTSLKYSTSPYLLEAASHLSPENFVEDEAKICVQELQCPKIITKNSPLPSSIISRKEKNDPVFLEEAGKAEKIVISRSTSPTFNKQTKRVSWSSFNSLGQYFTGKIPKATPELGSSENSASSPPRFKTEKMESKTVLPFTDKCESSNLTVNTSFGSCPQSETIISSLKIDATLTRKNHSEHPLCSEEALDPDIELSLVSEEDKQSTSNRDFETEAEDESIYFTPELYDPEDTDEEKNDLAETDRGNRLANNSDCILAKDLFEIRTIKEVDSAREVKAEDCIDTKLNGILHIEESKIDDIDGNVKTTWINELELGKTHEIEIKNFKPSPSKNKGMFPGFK

How the values were obtained:
Assay in all cases: log2 fold change, soluble protein after heating vs DMSO (PISA); higher = thermal stabilisation; K562 cells, 10 uM, 30 min; active = over 0.2 and 3.5 SD of the protein, either way, in both replicates (recomputed)
[1] = compound: CC1=C(C=C(C=C1)NC(=O)C2=CC(=CC=C2)C(C)(C)C#N)NC3=CC4=C(C=C3)N=CN(C4=O)C
In short: (§1)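 K562 cells at 2×10^6 cells/mL were given 10 μM compound for 30 min. Aliquots then went through 3 min of heating across 48°C-58°C, were pooled, and were extracted in PBS with 0.5% NP-40 at 4°C, and the supernatant after 21,000xg for 90 min was quantified by TMTpro 16plex LC-MS/MS with channel sums equalised. Thermal stability relative to control samples, from duplicates, is given as log2 fold change.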

[2] = compound: CC1=C(C=C(C=C1)NC(=O)C2=CC(=CC=C2)N(C)C)NC(=O)C3=CC=C(C=C3)O
In short: as §1

[3] = compound: CC1=CC=C(C=C1)SC2=C3C=C(SC3=CN=C2)C(=O)N
In short: as §1

[4] = compound: CC1=NC(=CC=C1)C2=C(N=C(N2)C(C)(C)C)C3=CC4=NC=CN=C4C=C3
In short: as §1

Nexturastat A = compound: CCCCN(Cc1ccc(C(=O)NO)cc1)C(=O)Nc1ccccc1 [Nexturastat A]
In short: as §1

vemurafenib = compound: CCCS(=O)(=O)Nc1ccc(F)c(C(=O)c2c[nH]c3ncc(-c4ccc(Cl)cc4)cc23)c1F [vemurafenib]
In short: as §1

[5] = compound: CCCS(=O)(=O)Nc1ccc(F)c(C(=O)c2c[nH]c3ncc(Cl)cc23)c1F
In short: as §1

givinostat = compound: CCN(CC)Cc1ccc2cc(COC(=O)Nc3ccc(C(=O)NO)cc3)ccc2c1 [givinostat]
In short: as §1

barasertib = compound: CCN(CCCOc1ccc2c(Nc3cc(CC(=O)Nc4cccc(F)c4)[nH]n3)ncnc2c1)CCOP(=O)(O)O [barasertib]
In short: as §1

[6] = compound: CC[C@@H]1C(=O)N(C)c2cnc(Nc3ccc(C(=O)NC4CCN(C)CC4)cc3OC)nc2N1C1CCCC1
In short: as §1

volasertib = compound: CC[C@@H]1C(=O)N(C)c2cnc(Nc3ccc(C(=O)N[C@H]4CC[C@H](N5CCN(CC6CC6)CC5)CC4)cc3OC)nc2N1C(C)C [volasertib]
In short: as §1

epoxomicin = compound: CC[C@H](C)[C@@H](C(=O)N[C@@H]([C@@H](C)O)C(=O)N[C@@H](CC(C)C)C(=O)[C@]1(CO1)C)NC(=O)[C@H]([C@@H](C)CC)N(C)C(=O)C [epoxomicin]
In short: as §1

[7] = compound: CCn1c(C(=O)N(C2CC2)C2CC2)cc2c3c(ncn3C)c(Nc3cc(C)n(C)n3)nc21
In short: as §1

[8] = compound: CCn1cc(-c2ccnc3[nH]c(-c4cccc(CN(C)C)c4)cc23)c(-c2ccc(NC(=O)N(C)C)cc2)n1
In short: as §1

[9] = compound: CN(C)CC(=O)Nc1ccc2[nH]c(=O)c3ccccc3c2c1
In short: as §1

rosiglitazone = compound: CN(CCOC1=CC=C(C=C1)C[C@H]2C(=O)NC(=O)S2)C3=CC=CC=N3 (racemic) [rosiglitazone]
In short: as §1

[10] = compound: CN1C2=C(C3=C1C(=O)N(N=C3)CC4=CC(=CC=C4)N)SC(=C2)S(=O)C
In short: as §1

[11] = compound: CN1CCC(CNc2ccc3ncc(-c4cccc(OC(F)(F)F)c4)n3n2)CC1
In short: as §1

[12] = compound: CCCc1cc(C)[nH]c(=O)c1CNC(=O)c1cc(-c2ccnc(N3CCN(C)CC3)c2)cc2c1cnn2C(C)C
In short: as §1

[13] = compound: CC[C@H](C)N1C=C(C2=C(C=C(C=C21)C3=CN=C(C=C3)N4CCNCC4)C(=O)NCC5=C(C=C(NC5=O)C)C)C
In short: as §1

In the case of BCAR1 isoform 6 (UniProt P56945), the log2 fold change [1] is reported as inactive: 0.026, the log2 fold change [2] is reported as inactive: -0.043 and the log2 fold change [3] is reported as inactive: -0.008. For the same target, the log2 fold change [4] was inactive: 0.034, the log2 fold change (Nexturastat A) was inactive: 0.102 and the log2 fold change (vemurafenib) was inactive: 0.016. The log2 fold change [5] was inactive: -0.003, the log2 fold change (givinostat) was inactive: 0.013 and the log2 fold change (barasertib) was inactive: 0.071. For the same target, the log2 fold change [6] was inactive: -0.094, the log2 fold change (volasertib) was inactive: -0.076 and the log2 fold change (epoxomicin) was inactive: -0.018. For the same target, the log2 fold change [7] was inactive: -0.011, the log2 fold change [8] was inactive: 0.018 and the log2 fold change [9] was inactive: 0.008. For the same target, the log2 fold change (rosiglitazone) was inactive: -0.027, the log2 fold change [10] was inactive: 0.09 and the log2 fold change [11] was inactive: -0.017.
With B3GNTL1 (UniProt Q67FW5) the log2 fold change [1] was inactive: -0.001, the log2 fold change [2] was inactive: -0.009 and the log2 fold change [3] was inactive: 0.031. The log2 fold change [4] was inactive: -0.012, the log2 fold change (Nexturastat A) was inactive: -0.009 and the log2 fold change (vemurafenib) was inactive: -0.094. For the same target, the log2 fold change [5] was inactive: 0.037, the log2 fold change [12] was inactive: -0.062 and the log2 fold change (givinostat) was inactive: -0.037. For the same target, the log2 fold change (barasertib) was inactive: 0.021, the log2 fold change (volasertib) was inactive: -0.081 and the log2 fold change [13] was inactive: -0.067. The log2 fold change (epoxomicin) was inactive: 0.055, the log2 fold change [7] was inactive: 0 and the log2 fold change [8] was inactive: -0.005. For the same target, the log2 fold change [9] was inactive: -0.076, the log2 fold change (rosiglitazone) was inactive: 0.003 and the log2 fold change [10] was inactive: -0.027. For the same target, the log2 fold change [11] was inactive: -0.144.
For B4GALT7 (UniProt Q9UBV7), the log2 fold change [1] was inactive: -0.01, the log2 fold change [2] was inactive: -0.016 and the log2 fold change [3] was inactive: 0.044. For the same target, the log2 fold change [4] was inactive: 0.047, the log2 fold change (Nexturastat A) was inactive: -0.151 and the log2 fold change (vemurafenib) was inactive: 0.027. The log2 fold change [5] was inactive: -0.079, the log2 fold change [12] was inactive: -0.038 and the log2 fold change (givinostat) was inactive: -0.041. The log2 fold change (barasertib) was inactive: 0.012, the log2 fold change [6] was inactive: 0.067 and the log2 fold change (volasertib) was inactive: -0.085. The log2 fold change (epoxomicin) was inactive: 0.051, the log2 fold change [7] was inactive: -0.064 and the log2 fold change [8] was inactive: -0.035. For the same target, the log2 fold change [9] was inactive: -0.06, the log2 fold change (rosiglitazone) was inactive: 0.053 and the log2 fold change [10] was inactive: -0.117. For the same target, the log2 fold change [11] was inactive: -0.23.
In the case of B3GALNT2 (UniProt Q8NCR0), the log2 fold change [1] is reported as inactive: -0.129, the log2 fold change [2] is reported as inactive: 0.115 and the log2 fold change [3] is reported as inactive: -0.123. For the same target, the log2 fold change [4] was inactive: 0.039, the log2 fold change (Nexturastat A) was inactive: -0.026 and the log2 fold change (vemurafenib) was inactive: -0.135. For the same target, the log2 fold change [5] was inactive: -0.324, the log2 fold change [12] was inactive: -0.114 and the log2 fold change (givinostat) was inactive: 0. For the same target, the log2 fold change (barasertib) was inactive: 0.078, the log2 fold change [6] was inactive: 0.18 and the log2 fold change (volasertib) was inactive: -0.118. The log2 fold change (epoxomicin) was inactive: -0.083, the log2 fold change [7] was inactive: 0.106 and the log2 fold change [8] was inactive: 0.056. For the same target, the log2 fold change [9] was inactive: -0.025, the log2 fold change (rosiglitazone) was inactive: 0.02 and the log2 fold change [11] was inactive: 0.094.
BMP2K (UniProt Q9NSY1) was tested, and the log2 fold change [1] was inactive: 0.01, the log2 fold change [2] was inactive: 0.033 and the log2 fold change [3] was inactive: -0.017. For the same target, the log2 fold change [4] was inactive: -0.011, the log2 fold change (Nexturastat A) was inactive: 0.126 and the log2 fold change (vemurafenib) was inactive: 0.011. For the same target, the log2 fold change [5] was inactive: 0.01, the log2 fold change [12] was inactive: -0.04 and the log2 fold change (givinostat) was inactive: 0.007. The log2 fold change (barasertib) was inactive: -0.014, the log2 fold change [6] was inactive: 0.13 and the log2 fold change (volasertib) was inactive: 0.115. The log2 fold change [13] was inactive: -0.02, the log2 fold change (epoxomicin) was inactive: -0.053 and the log2 fold change [8] was inactive: 0.023. For the same target, the log2 fold change [9] was inactive: -0.058, the log2 fold change [10] was inactive: 0.008 and the log2 fold change [11] was active: 0.656.
In the case of BAP1 (UniProt Q92560), the log2 fold change [1] is reported as inactive: -0.067, the log2 fold change [2] is reported as inactive: -0.088 and the log2 fold change [3] is reported as inactive: -0.149. The log2 fold change [4] was inactive: -0.058, the log2 fold change (Nexturastat A) was active: 0.403 and the log2 fold change (vemurafenib) was inactive: -0.089. For the same target, the log2 fold change [5] was inactive: -0.055, the log2 fold change [12] was inactive: 0.085 and the log2 fold change (givinostat) was active: 0.495. For the same target, the log2 fold change (barasertib) was inactive: -0.019, the log2 fold change [6] was inactive: -0.037 and the log2 fold change (volasertib) was inactive: 0.13. For the same target, the log2 fold change [13] was inactive: 0, the log2 fold change (epoxomicin) was inactive: -0.092 and the log2 fold change [8] was inactive: 0.101. For the same target, the log2 fold change [9] was inactive: -0.093, the log2 fold change [10] was inactive: 0.047 and the log2 fold change [11] was inactive: 0.055.
In the case of BLOC1S6 (UniProt Q9UL45), the log2 fold change [1] is reported as inactive: 0.059, the log2 fold change [2] is reported as inactive: 0.013 and the log2 fold change [3] is reported as inactive: -0.027. The log2 fold change [4] was inactive: 0.038, the log2 fold change (Nexturastat A) was inactive: -0.061 and the log2 fold change (vemurafenib) was inactive: 0.04. The log2 fold change [5] was inactive: 0.034, the log2 fold change [12] was inactive: 0.001 and the log2 fold change (givinostat) was inactive: 0.086. For the same target, the log2 fold change (barasertib) was inactive: -0.002, the log2 fold change [6] was inactive: -0.058 and the log2 fold change (volasertib) was inactive: 0.056. For the same target, the log2 fold change [13] was inactive: 0.145, the log2 fold change (epoxomicin) was inactive: 0.033 and the log2 fold change [7] was inactive: 0.279. For the same target, the log2 fold change [9] was inactive: -0.079, the log2 fold change (rosiglitazone) was inactive: -0.007 and the log2 fold change [10] was inactive: -0.079.
BRIP1 (UniProt Q9BX63) was tested, and the log2 fold change [1] was inactive: -0.049, the log2 fold change [2] was inactive: -0.007 and the log2 fold change [3] was inactive: -0.009. For the same target, the log2 fold change [4] was inactive: -0.03, the log2 fold change (Nexturastat A) was inactive: 0.23 and the log2 fold change (vemurafenib) was inactive: 0.184. The log2 fold change [5] was inactive: 0.045, the log2 fold change (givinostat) was inactive: 0.004 and the log2 fold change (barasertib) was inactive: -0.162. The log2 fold change [6] was inactive: -0.067, the log2 fold change (volasertib) was inactive: 0.008 and the log2 fold change [13] was inactive: -0.004. For the same target, the log2 fold change (epoxomicin) was inactive: -0.008, the log2 fold change [8] was inactive: -0.122 and the log2 fold change [9] was inactive: -0.068. The log2 fold change [10] was inactive: 0.041 and the log2 fold change [11] was inactive: -0.084.
